Laboratory results published in the supplement of paper PMC10849652.
This is one part of the list.

Chains of the proteins cited; added tags and fusions are not shown. Lines headed by an entry give the natural chain unless they say otherwise; changes in a name come on top.
UniProt Q2T9K0: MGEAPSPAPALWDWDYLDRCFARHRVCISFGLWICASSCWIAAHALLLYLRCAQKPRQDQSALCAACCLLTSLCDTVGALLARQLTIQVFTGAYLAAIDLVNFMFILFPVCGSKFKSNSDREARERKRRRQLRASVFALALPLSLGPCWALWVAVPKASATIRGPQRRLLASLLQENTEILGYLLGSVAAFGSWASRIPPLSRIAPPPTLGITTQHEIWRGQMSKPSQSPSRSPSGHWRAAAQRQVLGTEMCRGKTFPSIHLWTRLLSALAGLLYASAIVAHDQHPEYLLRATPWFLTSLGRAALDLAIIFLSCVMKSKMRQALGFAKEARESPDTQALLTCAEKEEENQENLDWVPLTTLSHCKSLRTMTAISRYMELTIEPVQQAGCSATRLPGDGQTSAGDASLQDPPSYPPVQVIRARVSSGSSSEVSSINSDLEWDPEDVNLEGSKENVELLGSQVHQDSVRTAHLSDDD
UniProt Q8NE00: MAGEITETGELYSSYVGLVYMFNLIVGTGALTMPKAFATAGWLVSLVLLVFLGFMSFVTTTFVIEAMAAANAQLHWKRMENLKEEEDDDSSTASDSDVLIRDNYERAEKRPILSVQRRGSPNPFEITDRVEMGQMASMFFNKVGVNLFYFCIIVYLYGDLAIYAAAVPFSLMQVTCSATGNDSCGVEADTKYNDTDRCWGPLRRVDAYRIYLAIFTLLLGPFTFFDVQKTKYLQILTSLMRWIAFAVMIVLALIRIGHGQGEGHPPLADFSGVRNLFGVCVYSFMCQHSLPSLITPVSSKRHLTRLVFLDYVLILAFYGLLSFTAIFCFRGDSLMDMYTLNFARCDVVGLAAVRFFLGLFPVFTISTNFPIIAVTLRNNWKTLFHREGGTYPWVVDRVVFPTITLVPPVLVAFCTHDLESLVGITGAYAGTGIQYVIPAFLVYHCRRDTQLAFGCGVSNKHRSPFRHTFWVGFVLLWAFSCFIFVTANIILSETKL
UniProt Q12767: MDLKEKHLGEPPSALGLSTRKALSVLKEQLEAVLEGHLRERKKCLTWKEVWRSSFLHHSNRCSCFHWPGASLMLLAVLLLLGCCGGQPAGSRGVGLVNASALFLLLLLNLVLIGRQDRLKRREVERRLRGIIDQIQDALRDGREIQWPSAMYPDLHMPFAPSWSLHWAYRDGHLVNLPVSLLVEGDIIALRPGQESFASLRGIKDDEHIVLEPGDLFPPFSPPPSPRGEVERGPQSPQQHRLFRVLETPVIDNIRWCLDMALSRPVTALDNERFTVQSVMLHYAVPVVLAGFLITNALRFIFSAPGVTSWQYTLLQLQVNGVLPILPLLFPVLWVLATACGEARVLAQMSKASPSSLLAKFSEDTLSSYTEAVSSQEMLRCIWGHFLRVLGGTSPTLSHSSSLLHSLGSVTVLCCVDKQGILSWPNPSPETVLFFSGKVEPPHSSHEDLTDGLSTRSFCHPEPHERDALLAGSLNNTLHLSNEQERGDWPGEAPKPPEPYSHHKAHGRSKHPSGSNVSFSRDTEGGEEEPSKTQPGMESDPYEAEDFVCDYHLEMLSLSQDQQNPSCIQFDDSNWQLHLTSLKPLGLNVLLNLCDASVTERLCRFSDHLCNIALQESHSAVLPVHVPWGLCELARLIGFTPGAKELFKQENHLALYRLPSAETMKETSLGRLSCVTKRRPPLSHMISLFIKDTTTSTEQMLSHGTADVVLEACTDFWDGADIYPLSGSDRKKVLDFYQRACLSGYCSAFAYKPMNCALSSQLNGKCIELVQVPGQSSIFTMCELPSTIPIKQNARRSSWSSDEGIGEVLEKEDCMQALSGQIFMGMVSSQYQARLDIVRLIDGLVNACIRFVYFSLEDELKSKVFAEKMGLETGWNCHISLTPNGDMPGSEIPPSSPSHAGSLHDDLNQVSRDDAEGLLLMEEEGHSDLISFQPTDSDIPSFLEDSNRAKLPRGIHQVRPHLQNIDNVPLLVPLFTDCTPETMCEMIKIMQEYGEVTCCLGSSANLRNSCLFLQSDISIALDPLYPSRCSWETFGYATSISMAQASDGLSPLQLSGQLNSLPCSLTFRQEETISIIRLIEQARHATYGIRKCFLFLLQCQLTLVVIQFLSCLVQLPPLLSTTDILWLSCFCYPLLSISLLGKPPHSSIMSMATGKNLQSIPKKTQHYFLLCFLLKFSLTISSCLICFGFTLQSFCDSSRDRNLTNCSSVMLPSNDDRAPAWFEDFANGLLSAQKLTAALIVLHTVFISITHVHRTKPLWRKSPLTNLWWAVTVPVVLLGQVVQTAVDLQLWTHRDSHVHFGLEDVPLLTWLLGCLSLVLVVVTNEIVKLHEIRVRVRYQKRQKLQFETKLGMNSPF
UniProt Q0VDI3: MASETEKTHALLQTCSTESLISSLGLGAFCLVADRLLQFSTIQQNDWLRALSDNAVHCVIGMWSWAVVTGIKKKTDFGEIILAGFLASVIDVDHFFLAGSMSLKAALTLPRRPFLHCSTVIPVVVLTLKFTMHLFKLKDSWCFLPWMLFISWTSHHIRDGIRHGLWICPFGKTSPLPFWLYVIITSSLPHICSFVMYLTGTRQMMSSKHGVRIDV
UniProt Q9H1K6: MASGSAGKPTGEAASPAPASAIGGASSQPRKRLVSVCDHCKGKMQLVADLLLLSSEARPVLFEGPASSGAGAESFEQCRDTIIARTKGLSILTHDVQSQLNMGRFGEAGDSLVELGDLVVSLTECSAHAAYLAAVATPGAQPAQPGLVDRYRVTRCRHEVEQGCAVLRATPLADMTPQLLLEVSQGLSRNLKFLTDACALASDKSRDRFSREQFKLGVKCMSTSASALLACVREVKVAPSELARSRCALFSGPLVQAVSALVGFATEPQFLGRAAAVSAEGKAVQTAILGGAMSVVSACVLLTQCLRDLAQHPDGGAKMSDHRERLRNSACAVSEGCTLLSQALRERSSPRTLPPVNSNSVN
UniProt Q9ULS5: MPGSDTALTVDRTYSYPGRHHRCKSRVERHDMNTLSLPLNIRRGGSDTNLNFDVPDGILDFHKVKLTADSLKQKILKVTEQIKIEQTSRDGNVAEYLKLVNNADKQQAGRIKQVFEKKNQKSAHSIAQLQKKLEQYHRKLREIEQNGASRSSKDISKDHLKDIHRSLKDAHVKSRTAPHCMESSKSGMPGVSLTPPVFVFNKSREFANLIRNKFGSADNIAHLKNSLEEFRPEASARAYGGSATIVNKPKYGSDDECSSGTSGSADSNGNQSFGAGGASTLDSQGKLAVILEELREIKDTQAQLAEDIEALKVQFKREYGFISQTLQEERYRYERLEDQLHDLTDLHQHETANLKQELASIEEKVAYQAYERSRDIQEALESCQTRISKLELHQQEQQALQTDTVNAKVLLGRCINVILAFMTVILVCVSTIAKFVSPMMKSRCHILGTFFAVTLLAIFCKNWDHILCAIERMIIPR
UniProt Q96IK0: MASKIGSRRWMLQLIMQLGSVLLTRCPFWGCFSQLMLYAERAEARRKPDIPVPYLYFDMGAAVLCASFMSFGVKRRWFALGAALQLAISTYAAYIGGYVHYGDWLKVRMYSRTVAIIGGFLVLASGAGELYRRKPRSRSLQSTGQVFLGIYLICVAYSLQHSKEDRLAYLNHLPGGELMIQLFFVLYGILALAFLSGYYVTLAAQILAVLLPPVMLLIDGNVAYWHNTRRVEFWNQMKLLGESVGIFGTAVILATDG
UniProt Q5BJD5: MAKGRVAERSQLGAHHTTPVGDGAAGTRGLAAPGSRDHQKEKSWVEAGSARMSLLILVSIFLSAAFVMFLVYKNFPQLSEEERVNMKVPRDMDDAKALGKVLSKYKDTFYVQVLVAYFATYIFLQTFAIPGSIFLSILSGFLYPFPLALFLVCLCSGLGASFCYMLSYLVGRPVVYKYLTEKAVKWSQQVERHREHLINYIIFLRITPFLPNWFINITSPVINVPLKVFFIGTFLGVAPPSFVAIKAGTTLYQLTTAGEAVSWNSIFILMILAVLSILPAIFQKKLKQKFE
UniProt Q5T292: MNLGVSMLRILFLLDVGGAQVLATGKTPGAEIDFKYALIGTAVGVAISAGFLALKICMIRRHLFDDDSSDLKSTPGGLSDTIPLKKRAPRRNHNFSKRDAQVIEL
UniProt O75204: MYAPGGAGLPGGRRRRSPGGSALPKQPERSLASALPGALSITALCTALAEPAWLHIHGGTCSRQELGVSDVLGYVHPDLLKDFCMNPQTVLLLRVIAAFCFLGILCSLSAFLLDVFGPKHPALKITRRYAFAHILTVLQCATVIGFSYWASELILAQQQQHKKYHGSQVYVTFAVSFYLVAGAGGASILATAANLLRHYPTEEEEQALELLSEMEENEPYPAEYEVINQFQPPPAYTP
UniProt Q9Y2Y6: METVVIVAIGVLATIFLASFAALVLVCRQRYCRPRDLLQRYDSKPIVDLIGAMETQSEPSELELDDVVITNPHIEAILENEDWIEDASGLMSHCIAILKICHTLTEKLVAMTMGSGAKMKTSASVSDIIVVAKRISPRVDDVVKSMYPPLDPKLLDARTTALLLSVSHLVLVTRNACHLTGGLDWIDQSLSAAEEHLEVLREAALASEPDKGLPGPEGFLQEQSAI
UniProt A0PK00: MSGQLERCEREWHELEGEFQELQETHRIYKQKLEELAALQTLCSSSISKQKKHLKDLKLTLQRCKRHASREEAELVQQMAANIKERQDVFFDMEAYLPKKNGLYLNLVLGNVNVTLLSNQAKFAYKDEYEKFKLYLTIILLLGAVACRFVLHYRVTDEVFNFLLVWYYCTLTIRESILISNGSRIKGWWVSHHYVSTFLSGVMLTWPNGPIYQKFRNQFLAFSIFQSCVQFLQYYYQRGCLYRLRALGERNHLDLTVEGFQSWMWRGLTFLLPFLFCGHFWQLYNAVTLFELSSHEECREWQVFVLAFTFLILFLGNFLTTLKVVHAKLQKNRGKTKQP
UniProt Q03169: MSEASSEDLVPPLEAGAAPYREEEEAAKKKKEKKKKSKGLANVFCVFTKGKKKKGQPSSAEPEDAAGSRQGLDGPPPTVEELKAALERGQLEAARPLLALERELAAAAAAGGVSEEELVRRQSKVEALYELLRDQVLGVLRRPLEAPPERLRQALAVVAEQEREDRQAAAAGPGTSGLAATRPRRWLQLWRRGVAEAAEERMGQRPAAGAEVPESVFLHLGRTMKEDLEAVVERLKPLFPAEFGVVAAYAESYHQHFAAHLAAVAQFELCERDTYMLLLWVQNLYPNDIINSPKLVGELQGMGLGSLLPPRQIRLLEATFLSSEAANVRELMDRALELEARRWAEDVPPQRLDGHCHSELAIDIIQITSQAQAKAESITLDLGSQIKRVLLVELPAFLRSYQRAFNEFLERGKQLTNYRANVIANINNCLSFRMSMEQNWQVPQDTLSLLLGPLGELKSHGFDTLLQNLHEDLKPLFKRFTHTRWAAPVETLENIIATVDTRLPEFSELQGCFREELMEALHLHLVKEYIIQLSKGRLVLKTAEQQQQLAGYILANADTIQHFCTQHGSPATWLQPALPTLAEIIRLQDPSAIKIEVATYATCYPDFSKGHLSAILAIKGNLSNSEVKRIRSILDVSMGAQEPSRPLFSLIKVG
UniProt Q9H6X4: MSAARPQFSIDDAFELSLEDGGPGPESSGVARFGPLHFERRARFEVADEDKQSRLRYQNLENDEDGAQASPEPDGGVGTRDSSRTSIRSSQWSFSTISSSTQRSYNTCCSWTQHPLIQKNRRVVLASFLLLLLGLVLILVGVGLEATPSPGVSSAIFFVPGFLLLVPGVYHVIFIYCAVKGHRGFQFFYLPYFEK
UniProt Q9HCN3: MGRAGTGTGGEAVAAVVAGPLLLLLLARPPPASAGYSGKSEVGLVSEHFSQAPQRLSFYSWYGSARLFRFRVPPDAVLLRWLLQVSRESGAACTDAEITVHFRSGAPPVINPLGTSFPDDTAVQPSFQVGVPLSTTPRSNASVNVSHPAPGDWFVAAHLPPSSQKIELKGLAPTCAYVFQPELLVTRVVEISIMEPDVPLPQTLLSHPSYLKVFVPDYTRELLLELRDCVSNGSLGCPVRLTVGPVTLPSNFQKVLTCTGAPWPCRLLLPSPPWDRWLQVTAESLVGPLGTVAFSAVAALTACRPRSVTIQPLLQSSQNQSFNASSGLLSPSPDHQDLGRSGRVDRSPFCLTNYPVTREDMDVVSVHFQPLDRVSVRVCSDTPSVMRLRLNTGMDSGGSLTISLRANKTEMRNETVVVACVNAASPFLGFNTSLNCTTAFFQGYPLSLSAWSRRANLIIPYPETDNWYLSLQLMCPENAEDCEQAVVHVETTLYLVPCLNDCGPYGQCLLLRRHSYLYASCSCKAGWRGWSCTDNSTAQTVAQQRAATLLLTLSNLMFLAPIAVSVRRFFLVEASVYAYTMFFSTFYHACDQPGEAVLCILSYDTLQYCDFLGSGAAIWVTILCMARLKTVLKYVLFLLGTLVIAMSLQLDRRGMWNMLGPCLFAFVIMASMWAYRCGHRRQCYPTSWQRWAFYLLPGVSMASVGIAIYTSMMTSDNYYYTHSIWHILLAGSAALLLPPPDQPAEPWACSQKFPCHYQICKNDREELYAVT

Legend:
Test in all cases: log2 fold change, soluble protein after heating vs DMSO (PISA); higher = thermal stabilisation; K562 cells, 10 uM, 30 min; active = over 0.2 and 3.5 SD of the protein, either way, in both replicates (recomputed)
[1] = compound: C[C@@H](Oc1cc(-c2cnn(C3CCNCC3)c2)cnc1N)c1c(Cl)ccc(F)c1Cl [crizotinib]
In short: (§1)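 K562 cells at 2×10^6 cells/mL were treated for 30 min with 10 μM compound, and aliquots were heated for 3 min over 48°C-58°C before pooling. Extraction used PBS with 0.5% NP-40 at 4°C, and soluble protein was the supernatant after 21,000xg for 90 min, measured by TMTpro 16plex LC-MS/MS with channel sums equalised. Thermal stability values, relative to control samples and from duplicates, are log2 fold changes.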

[2] = compound: Cc1ccc(-n2nc(C(C)(C)C)cc2NC(=O)Nc2ccc(OCCN3CCOCC3)c3ccccc23)cc1 [doramapimod]
In short: as §1

[3] = compound: Cc1cn(-c2cc(NC(=O)c3ccc(C)c(Nc4nccc(-c5cccnc5)n4)c3)cc(C(F)(F)F)c2)cn1 [nilotinib]
In short: as §1

[4] = compound: Cc1nc(Nc2n[nH]c3c2CN(C(=O)N[C@H](CN(C)C)c2ccccc2)C3(C)C)c2sccc2n1
In short: as §1

[5] = compound: Cc1ncc(-c2ccnc(Nc3ccc(S(C)(=O)=O)cc3)n2)n1C(C)C
In short: as §1

[6] = compound: C[C@H](C1=CC=C(C=C1)C(=O)NC2=C3C=CNC3=NC=C2)N
In short: as §1

[7] = compound: C[C@H](Nc1ncnc2nc[nH]c12)c1cc2cccc(Cl)c2c(=O)n1-c1ccccc1 [duvelisib]
In short: as §1

[8] = compound: Cc1cc(Nc2cc(CN3CCOCC3)c3nc(C)c(Cc4ccc(Cl)cc4F)n3n2)n[nH]1 [gandotinib]
In short: as §1

[9] = compound: Cc1cc(Nc2cc(N3CCN(C)CC3)nc(Sc3ccc(NC(=O)C4CC4)cc3)n2)n[nH]1 [tozasertib]
In short: as §1

[10] = compound: Cc1cc(SCc2sc(-c3ccc(C(F)(F)F)cc3)nc2C)ccc1OCC(=O)O
In short: as §1

[11] = compound: Cc1ccc(C(=O)N(CCCN)[C@@H](c2nc3cc(Cl)ccc3c(=O)n2Cc2ccccc2)C(C)C)cc1 [ispinesib]
In short: as §1

[12] = compound: Cc1ccc(NC(=O)c2ccc(CN3CC[C@H](N(C)C)C3)c(C(F)(F)F)c2)cc1Nc1nccc(-c2cncnc2)n1 [bafetinib]
In short: as §1

[13] = compound: Cc1cccc(CC(=O)N2CCc3c2ccc(-c2cn(C)c4ncnc(N)c24)c3F)n1
In short: as §1

[14] = compound: Cc1nc(Nc2ncc(C(=O)Nc3c(C)cccc3Cl)s2)cc(N2CCN(CCO)CC2)n1 [dasatinib]
In short: as §1

[15] = compound: Cn1cc(-c2ccc3c(c2)CCN3C(=O)Cc2cccc(C(F)(F)F)c2)c2c(N)ncnc21
In short: as §1

[16] = compound: Cn1cc(-c2ccc3nnc(C(F)(F)c4ccc5ncccc5c4)n3n2)cn1
In short: as §1

[17] = compound: Cn1cncc1[C@@](N)(c1ccc(Cl)cc1)c1ccc2c(c1)c(-c1cccc(Cl)c1)cc(=O)n2C [tipifarnib]
In short: as §1

[18] = compound: FC(F)(F)c1ccc(/C=C/c2nc(COc3ccc(CCCCn4ccnn4)cc3)co2)cc1 [mubritinib]
In short: as §1

[19] = compound: C[C@@H]1COCCN1C2=NC(=NC(=C2)C3(CC3)S(=O)(=O)C)C4=C5C=CNC5=CC=C4
In short: as §1

[20] = compound: CS(=O)(=O)c1ccc(-c2cnc(N)c(C(=O)Nc3ccccc3)n2)cc1
In short: as §1

Measured: log2 fold change

TMEM44 (UniProt Q2T9K0)
inactive: [1] 0.089 | [2] 0.003 | [3] 0.046 | [4] -0.172 | [5] -0.014

TMEM181 (UniProt Q9P2C4)
inactive: [1] 0.194 | [6] -0.164 | [7] -0.147 | [8] 0.202 | [9] 0.039 | [10] -0.026 | [2] 0.029 | [11] -0.01 | [12] 0.048 | [13] -0.012 | [14] 0.169 | [15] -0.022 | [16] -0.049 | [17] 0.066 | [18] 0.094

TMPO (UniProt G5E972)
inactive: [8] -0.017 | [13] -0.035 | [18] 0.005

TMEM104 (UniProt Q8NE00)
inactive: [1] -0.145 | [19] 0.012 | [6] 0.009 | [8] -0.087 | [10] -0.049 | [2] 0.112 | [11] -0.34 | [13] 0.172 | [3] 0.019 | [4] -0.003 | [14] 0.009 | [5] -0.013 | [15] 0.066 | [16] 0.095 | [17] 0.035 | [18] -0.089

TMEM94 isoform 2 (UniProt Q12767)
inactive: [7] 0.221 | [10] -0.055 | [14] -0.131

TMEM267 (UniProt Q0VDI3)
inactive: [1] 0.116 | [6] -0.131 | [8] 0.17 | [9] -0.086 | [2] 0.053 | [11] -0.173 | [12] 0.033 | [13] -0.045 | [15] 0.265 | [16] 0.113 | [17] 0.186

TLNRD1 (UniProt Q9H1K6)
inactive: [6] -0.092 | [9] -0.037 | [15] -0.099

TMCC3 (UniProt Q9ULS5)
inactive: [20] 0.018 | [11] -0.023 | [12] 0.031 | [3] -0.232 | [4] 0.005 | [5] -0.279 | [16] 0.046 | [18] 0.113

2 records picked at random from the list so far:
TMEM181 (UniProt Q9P2C4)
inactive: [1] 0.194 | [6] -0.164 | [7] -0.147 | [8] 0.202 | [9] 0.039 | [10] -0.026 | [2] 0.029 | [11] -0.01 | [12] 0.048 | [13] -0.012 | [14] 0.169 | [15] -0.022 | [16] -0.049 | [17] 0.066 | [18] 0.094

TMEM44 (UniProt Q2T9K0)
inactive: [1] 0.089 | [2] 0.003 | [3] 0.046 | [4] -0.172 | [5] -0.014

Remaining list, next part

TMEM101 (UniProt Q96IK0)
inactive: [1] -0.052 | [6] -0.019 | [7] 0.089 | [8] -0.229 | [9] 0.006 | [10] -0.057 | [2] -0.013 | [11] -0.165 | [12] 0.016 | [13] 0.027 | [3] -0.118 | [4] 0.061 | [14] -0.015 | [5] -0.063 | [15] -0.087 | [16] -0.025 | [17] -0.076 | [18] 0.036

TMEM41B (UniProt Q5BJD5)
inactive: [1] -0.012 | [19] 0.121 | [6] -0.031 | [7] -0.046 | [8] -0.051 | [9] -0.041 | [10] -0.122 | [2] 0.101 | [11] -0.268 | [12] -0.177 | [13] 0.053 | [3] 0.051 | [4] -0.008 | [14] 0.011 | [5] -0.019 | [15] 0.016 | [16] 0 | [17] 0.023 | [18] 0.032

TMEM184B (UniProt Q9Y519)
inactive: [20] -0.037 | [9] -0.034 | [12] -0.105 | [3] 0.022 | [4] -0.064 | [5] -0.018 | [17] 0.044 | [18] -0.008

TMEM273 isoform 2 (UniProt Q5T292)
inactive: [9] -0.218 | [3] -0.177 | [4] -0.053 | [5] 0.032

TMEM127 (UniProt O75204)
inactive: [6] 0.058 | [9] -0.055 | [3] 0.015 | [4] -0.072 | [5] 0.1 | [15] -0.017

TMEM98 (UniProt Q9Y2Y6)
inactive: [11] -0.171 | [12] 0.004 | [3] 0.126 | [4] -0.034 | [5] 0.122 | [16] -0.003 | [17] 0.038 | [18] -0.195

TMEM120B (UniProt A0PK00)
inactive: [1] 0.015 | [6] -0.201 | [7] -0.103 | [8] -0.013 | [9] -0.013 | [10] -0.093 | [2] -0.055 | [11] 0.156 | [13] 0.068 | [3] 0.015 | [4] 0.058 | [14] -0.166 | [5] 0.076 | [15] 0.14 | [16] 0.049 | [18] -0.086

TNFAIP2 (UniProt Q03169)
inactive: [20] 0.125 | [7] 0.127 | [9] -0.069 | [10] -0.069 | [12] -0.139 | [3] -0.172 | [4] 0.143 | [14] 0.014 | [5] -0.004

TMEM134 (UniProt Q9H6X4)
inactive: [1] 0.034 | [19] -0.159 | [8] 0.011 | [2] -0.046 | [11] -0.099 | [12] -0.113 | [13] 0.011 | [16] 0.104 | [18] 0.027

TMEM8A (UniProt Q9HCN3)
inactive: [20] 0.425 | [6] 0.049 | [8] 0.014 | [10] -0.095 | [11] -0.065 | [12] -0.054 | [13] 0.096 | [3] -0.033 | [4] 0.071 | [14] -0.409 | [5] 0.019 | [15] -0.046 | [16] 0 | [17] 0.047 | [18] -0.001
